Results: article PMC7555659
Results are given in words; binding and its absence hold for the method and conditions named. Binding seen in cells or lysates may run through a third protein. A result given as binding can be weak or reduced; the word gives no strength.

Target: AKT (also known as protein kinase B) (mouse (endogenous in hippocampus))
Assay: co-IP; whole hippocampus of P2X7R KO mice 7 days after KA, lysed in RIPA buffer; AKT antibody and protein G Sepharose overnight at 4 °C; Western blot; mice infused with control siRNA or HSP25 siRNA

binding: binds
B1: pleckstrin homology domain and leucine-rich repeat protein phosphatase 2 (protein, UniProt Q8BXA7 1-1320)
chain: MKHNGSRTCLNRRSRFGSRERDWLREDVKRGCVYLYGADTTTATTTTSSSSSSSSSSDLHLVLCTVETPASEICAGEGRESLYLQLHGDLVRRLEPSERPLQIVYDYLSRLGFEDPVRIQEEATNPDLSCMIRFYGEKPCQMDHLDRILLSGIYNVRKGKTQLHKWAERLVVLCGTCLIVSSVKDCQTGKMHILPLVGGKIEEVKRRQHSLAFSSAGAQAQTYHVSFETLAEYQRWQRQASKVVSQRMSTVDLSCYSLEEVPEHLFYSQDITYLNLRHNFMQLERPGGLDTLHKFSQLKGLNLSHNKLGLFPVLLCEISTLTELSLSCNGFHDLPSQIGKLLNLQTLSLDGNGLTALPDELGNLRQLTSLGISFNDFRHIPEVLEKLTMLDKVAMAGNRLEVLNLGALTRMSQVKHVDLRMNHLKTVITENMEGNKHITHMDLRDNQLTDLDLSSLCSLEQLHCERNQLRELTLSGFSLRTLYASWNRLTAVNVYPVPSLLTSLELSQNLLECVPDWACEAKKLEILDISHNLLTEVPMRILSSLSLRKLMVGHNHIHVLPALVEHIPLEVLDIQHNTLSRLPDTLFSKALNLRYLNASANSLESLPSACAGEESLSVLQLLYLTSNLLTDQCIPVLVGHPHLRVLHLANNQLQTFPASKLNKLEQLEELNLSGNKLTAIPTTIANCKRLHTLVAHANNISIFPEILQLPQIQFVDLSCNDLTEILIPEALPATLQDLDLTGNTNLVLEHKTLDMFSHITALKIDQKPLPATDSAVTSTFWSHGLAEMAGQRNKLCVSALAMDNFAEGVGAVYGMFDGDRNEELPRLLQCTMADVLLEEVQHSTNDTVFMTNTFLVSHRKLGMAGQKLGSSALLCYIRPDTADPTSSFSLTVANVGMCQAVLCRGGKPVPLSKVFSLEHDPEEAQRVKDQKAIITEDNKVNGVTCCTRLLGCTYLYPWILPKPHIASTPLTIQDELLILGNKALWEHLSYLEAVNAVRHVQDPLAAAKKLCTLAQSYGCQDNVGAMVVYLNIGEEGCTCEMNGLTLPGPVGFASTAALKDTPKPTTPSSSSGIASEFSSEMSTSEVSSEVGSTASDEHNTVGLEASLLPRPERRCSLHPASSAGVFQRQPSCATFSSNQSDNGLDSDDDQPVEGVITNGSRVEVEVDIHCCRGREPESSPPLPKNSSNACSEERARGAGFGIRRQNSVNSGILLPANRDKMELQKSPSTSCLYGKKLSNGSIVPLEDSLNLIEVATEAPKRKTGYFAAPTQLEPEDQFVVPRDLEEEVKEQMKQHQEGRPEPEPRGEERTEPLEEFDTAL
